Measured values published in US20220119513A1.
Results are given in words; binding and its absence hold for the method and conditions named. Binding can be weak; no strength is given.

What was measured:
TGFβ1 (R&D Systems) = experiment: SPR
TGFβ2 (R&D Systems) = experiment: SPR

Row | Binder | binding (TGFβ1 (R&D Systems)) | binding (TGFβ2 (R&D Systems))
1 | felHclb-2 (antibody, V domains shown) VH: QVLLVQSGAEVRRPGASVKIFCKASGYIFITYYMHWLRQAPAQGFEWMGSIFPASGSTSYAQKFQGRLTLTADTSTDTAYMELSSLRSADTAVYYCARGDGNYALDAMDYWGHGTIVTVSS VL: EIQMTQSPSSLSASPGDRVTITCRASESVDSYGNSFMHWYQQKPGKVPKLLIYLASNLESGVPSRFSGSGSGTDFTLTISSLEPEDAATYYCQQNNEDPLTFGAGT | binds | binds
2 | felHclb-13 (antibody, V domains shown) VH: QVLLVQSGAEVRTPGASVKIFCKASGYIFITYYMHWVRQSPAQGLEWMGSIFPASGSTSYAQKFQGRLTLTADTSTNTAYMELSSLRSADTAMYYCARGDGNYALDAMDYWGQGTSVTVSS VL: DIVMTQTPLSLPVTPGEPASISCRASESVDSYGNSFMHWYLQKPGQSPRLLIYLASNLESGVPSRFSGSGSGTDFTLRISSVEADDVGVYYCQQNNEDPLTFGAGT | binds | binds
3 | felHclb-14 (antibody, V domains shown) VH: QVLLVQSGAEVRTPGASVKIFCKASGYIFITYYMHWVRQSPAQGLEWMGSIFPASGSTSYAQKFQGRLTLTADTSTNTAYMELSSLRSADTAMYYCARGDGNYALDAMDYWGQGTSVTVSS VL: EIQMTQSPSSLSASPGDRVTITCRASESVDSYGNSFMHWYQQKPGKVPKLLIYLASNLESGVPSRFSGSGSGTDFTLTISSLEPEDAATYYCQQNNEDPLTFGAGT | binds | binds
4 | felHclb-15 (antibody, V domains shown) VH: QVLLVQSGAEVRTPGASVKIFCKASGYIFITYYMHWVRQSPAQGLEWMGSIFPASGSTSYAQKFQGRLTLTADTSTNTAYMELSSLRSADTAMYYCARGDGNYALDAMDYWGQGTSVTVSS VL: AITMTQSPGSLAGSPGQQVTMNCRASESVDSYGNSFMHWYQQKPGQHPKLLIYLASNLESGVPDRFSGSGSGTDFTLTISNLQAEDVASYYCQQNNEDPLTFGAGT | binds | binds
5 | felHclb-16 (antibody, V domains shown) VH: QVLLVQSGAEVRTPGASVKIFCKASGYIFITYYMHWVRQSPAQGLEWMGSIFPASGSTSYAQKFQGRLTLTADTSTNTAYMELSSLRSADTAMYYCARGDGNYALDAMDYWGQGTSVTVSS VL: DVVMTQTPLSLPVTPGEPASISCRASESVDSYGNSFMHWYLQKPGQSPRRLIYLASNLESGVPDRFSGSGSGTDFTLRISRVEADDVGVYYCQQNNEDPLTFGAGT | binds | binds
6 | felHclb_heterochimera-7 (antibody, V domains shown) VH: EVQLVQSGAEVKKPGASVKVSCKTSGYTFITYWMNWVRQAPGAGLDWMGQIFPASGSTNYNEMFEGRVTLTADTSTSTAYMELSSLRAGDIAVYYCARGDGNYALDAMDYWGQGTLVT VL: DIVMTQTPLSLPVTPGEPASISCRASESVDSYGNSFMHWYLQKPGQSPRLLIYLASNLESGVPSRFSGSGSGTDFTLRISSVEADDVGVYYCQQNNEDPLTFGAGT | binds | binds
7 | felHclb_heterochimera-8 (antibody, V domains shown) VH: EVQLVQSGAEVKKPGASVKVSCKTSGYTFITYWMNWVRQAPGAGLDWMGQIFPASGSTNYNEMFEGRVTLTADTSTSTAYMELSSLRAGDIAVYYCARGDGNYALDAMDYWGQGTLVT VL: EIQMTQSPSSLSASPGDRVTITCRASESVDSYGNSFMHWYQQKPGKVPKLLIYLASNLESGVPSRFSGSGSGTDFTLTISSLEPEDAATYYCQQNNEDPLTFGAGT | binds | binds
8 | felHclb_heterochimera-9 (antibody, V domains shown) VH: EVQLVQSGAEVKKPGASVKVSCKTSGYTFITYWMNWVRQAPGAGLDWMGQIFPASGSTNYNEMFEGRVTLTADTSTSTAYMELSSLRAGDIAVYYCARGDGNYALDAMDYWGQGTLVT VL: AITMTQSPGSLAGSPGQQVTMNCRASESVDSYGNSFMHWYQQKPGQHPKLLIYLASNLESGVPDRFSGSGSGTDFTLTISNLQAEDVASYYCQQNNEDPLTFGAGT | binds | binds
9 | felHclb 1-1xWMN (antibody, V domains shown) VH: QVLLVQSGAEVRTPGASVKIFCKASGYIFITYWMNWVRQSPAQGLEWMGQIFPASGSTNYNEMFEGRLTLTADTSTNTAYMELSSLRSADTAMYYCARGDGNYALDAMDYWGQGTSVTVSS VL: EIQMTQSPSSLSASPGDRVTITCRASESVDSYGNSFMHWYQQKPGKVPKLLIYLASNLESGVPSRFSGSGSGTDFTLTISSLEPEDAATYYCQQNNEDPLTFGAGT | binds | binds

The next lines start with the values.

Row | binding (TGFβ1 (R&D Systems)) | binding (TGFβ2 (R&D Systems)) | Binder
10 | binds | binds | felHclb_heterochimera-10 (antibody, V domains shown) VH: EVQLVQSGAEVKKPGASVKVSCKTSGYTFITYWMNWVRQAPGAGLDWMGQIFPASGSTNYNEMFEGRVTLTADTSTSTAYMELSSLRAGDIAVYYCARGDGNYALDAMDYWGQGTLVT VL: DVVMTQTPLSLPVTPGEPASISCRASESVDSYGNSFMHWYLQKPGQSPRRLIYLASNLESGVPDRFSGSGSGTDFTLRISRVEADDVGVYYCQQNNEDPLTFGAGT
11 | no binding | no binding | felHclb_heterochimera-12 (antibody, V domains shown) VH: QVLLVQSGAEVRTPGASVKIFCKASGYIFITYYMHWVRQSPAQGLEWMGSIFPASGSTSYAQKFQGRLTLTADTSTNTAYMELSSLRSADTAMYYCARGDGNYALDAMDYWGQGTSVTVSS VL: DIVLTQTPASLAVSLGQRATISCRASESVDSYGNSFMHWYQQKSGQPPKLLIYLASNLESGVPARFSGSGSRTDFTLTIDPVEADDAATYYCQQNNEDPLTFGAGTK
12 | no binding | no binding | felHclb_heterochimera-13 (antibody, V domains shown) VH: QVLLVQSGAEVRRPGASVKIFCKASGYIFITYYMHWLRQAPAQGFEWMGQIFPASGSTNYNEMFEGRLTLTADTSTDTAYMELSSLRSADTAVYYCARGDGNYALDAMDYWGHGTIVTVSS VL: DIVLTQTPASLAVSLGQRATISCRASESVDSYGNSFMHWYQQKSGQPPKLLIYLASNLESGVPARFSGSGSRTDFTLTIDPVEADDAATYYCQQNNEDPLTFGAGTK
13 | no binding | no binding | felHclb_heterochimera-14 (antibody, V domains shown) VH: QVLLVQSGAEVRTPGASVKIFCKASGYIFITYYMHWVRQSPAQGLEWMGQIFPASGSTNYNEMFEGRLTLTADTSTNTAYMELSSLRSADTAMYYCARGDGNYALDAMDYWGQGTSVTVSS VL: DIVLTQTPASLAVSLGQRATISCRASESVDSYGNSFMHWYQQKSGQPPKLLIYLASNLESGVPARFSGSGSRTDFTLTIDPVEADDAATYYCQQNNEDPLTFGAGTK
14 | no binding | no binding | felHclb_heterochimera-15 (antibody, V domains shown) VH: QVLLVQSGAEVRKPGASVKIFCKASGYTFITYYMHWLRQAPEQGLEWMGRIFPASGSTSYAQKFQGRLTLTADTSTNTAYMELSSLRSADTAMYYCARGDGNYALDAMDYWGQGALVTVSS VL: DIVLTQTPASLAVSLGQRATISCRASESVDSYGNSFMHWYQQKSGQPPKLLIYLASNLESGVPARFSGSGSRTDFTLTIDPVEADDAATYYCQQNNEDPLTFGAGTK
15 | no binding | no binding | felHclb_heterochimera-16 (antibody, V domains shown) VH: QVLLVQSGAEVRKPGASVKIFCKASGYTFITYYMHWLRQAPEQGLEWMGQIFPASGSTNYNEMFEGRLTLTADTSTNTAYMELSSLRSADTAMYYCARGDGNYALDAMDYWGQGALVTVSS VL: DIVLTQTPASLAVSLGQRATISCRASESVDSYGNSFMHWYQQKSGQPPKLLIYLASNLESGVPARFSGSGSRTDFTLTIDPVEADDAATYYCQQNNEDPLTFGAGTK
